The data set in a line: in vivo. To be noted: mouse, sc.

On to `CCN(CC)CC(=O)Nc1c(C)cccc1C` [Lidocaine, reference compound], for which the 50% lethal dose (LD50) – broadly, the dose expected to kill half of the subjects tested – is 220 mg/kg.

The record behind these values is US4822778A, “Membrane stabilizing phenoxy-piperidine compounds and pharmaceutical compositions employing such compounds” (Aberg; Gunnar, priority 1988, dated 1989).
